Assay results published in the supplement of paper PMC11546906.
Counter-ions that a name gives are not always drawn. The list shows a part of the results. This data set is noisy: repeats of one test often differ as much as different tests do.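 FDA-approved drugs were each paired with colistin at one-eighth its MIC and screened against a multidrug-resistant, mcr-1-positive clinical E. coli isolate, with OD600 read after 24 h. Drug-free bacteria served as growth control, plain broth as blank. Combinations were active if OD600 dropped below 0.2.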

What follows are compounds tested on Escherichia coli 42 (mcr-1-positive clinical isolate) (assay: OD600 after 24 h growth with compound plus colistin (absorbance units (OD600)); higher = more bacterial growth (less inhibition)). Conditions: first compound 25 µM; colistin concentration 0.5 ug/mL; incubation time 24 h; 37 °C.

OD600, inactive:
OC(CCCN1CCCCC1)(c1ccccc1)c1ccccc1 [Diphenidol hydrochloride] + CCC(C)CCCC(=O)N[C@@H](CCN)C(=O)N[C@H](C(=O)N[C@@H](CCN)C(=O)N[C@H]1CCNC(=O)[C@H]([C@@H](C)O)NC(=O)[C@H](CCN)NC(=O)[C@H](CCN)NC(=O)[C@H](CC(C)C)NC(=O)[C@@H](CC(C)C)NC(=O)[C@H](CCN)NC1=O)[C@@H](C)O [colistin] 0.837
NC(=O)N/N=C/c1ccc([N+](=O)[O-])o1 [Nitrofurazone] + CCC(C)CCCC(=O)N[C@@H](CCN)C(=O)N[C@H](C(=O)N[C@@H](CCN)C(=O)N[C@H]1CCNC(=O)[C@H]([C@@H](C)O)NC(=O)[C@H](CCN)NC(=O)[C@H](CCN)NC(=O)[C@H](CC(C)C)NC(=O)[C@@H](CC(C)C)NC(=O)[C@H](CCN)NC1=O)[C@@H](C)O [colistin] 1.1
CCN(CC)CCOC(=O)C1(C2CCCCC2)CCCCC1 [Dicyclomine hydrochloride] + CCC(C)CCCC(=O)N[C@@H](CCN)C(=O)N[C@H](C(=O)N[C@@H](CCN)C(=O)N[C@H]1CCNC(=O)[C@H]([C@@H](C)O)NC(=O)[C@H](CCN)NC(=O)[C@H](CCN)NC(=O)[C@H](CC(C)C)NC(=O)[C@@H](CC(C)C)NC(=O)[C@H](CCN)NC1=O)[C@@H](C)O [colistin] 1
OC(Cn1cncn1)(Cn1cncn1)c1ccc(F)cc1F [Fluconazole] + CCC(C)CCCC(=O)N[C@@H](CCN)C(=O)N[C@H](C(=O)N[C@@H](CCN)C(=O)N[C@H]1CCNC(=O)[C@H]([C@@H](C)O)NC(=O)[C@H](CCN)NC(=O)[C@H](CCN)NC(=O)[C@H](CC(C)C)NC(=O)[C@@H](CC(C)C)NC(=O)[C@H](CCN)NC1=O)[C@@H](C)O [colistin] 0.828
Nc1nc2c(ncn2COC(CO)CO)c(=O)[nH]1 [Ganciclovir] + CCC(C)CCCC(=O)N[C@@H](CCN)C(=O)N[C@H](C(=O)N[C@@H](CCN)C(=O)N[C@H]1CCNC(=O)[C@H]([C@@H](C)O)NC(=O)[C@H](CCN)NC(=O)[C@H](CCN)NC(=O)[C@H](CC(C)C)NC(=O)[C@@H](CC(C)C)NC(=O)[C@H](CCN)NC1=O)[C@@H](C)O [colistin] 0.791
CN(C)c1cc(CNCC(C)(C)C)c(O)c2c1C[C@H]1C[C@H]3[C@H](N(C)C)C(=O)C(C(N)=O)=C(O)[C@@]3(O)C(=O)C1=C2O [Omadacycline] + CCC(C)CCCC(=O)N[C@@H](CCN)C(=O)N[C@H](C(=O)N[C@@H](CCN)C(=O)N[C@H]1CCNC(=O)[C@H]([C@@H](C)O)NC(=O)[C@H](CCN)NC(=O)[C@H](CCN)NC(=O)[C@H](CC(C)C)NC(=O)[C@@H](CC(C)C)NC(=O)[C@H](CCN)NC1=O)[C@@H](C)O [colistin] 1.08
Clc1ccc2c(c1)CCc1cccnc1C2=C1CCNCC1 [Desloratadine] + CCC(C)CCCC(=O)N[C@@H](CCN)C(=O)N[C@H](C(=O)N[C@@H](CCN)C(=O)N[C@H]1CCNC(=O)[C@H]([C@@H](C)O)NC(=O)[C@H](CCN)NC(=O)[C@H](CCN)NC(=O)[C@H](CC(C)C)NC(=O)[C@@H](CC(C)C)NC(=O)[C@H](CCN)NC1=O)[C@@H](C)O [colistin] 0.728
COC(=O)C1=C(C)NC(C)=C(C(=O)OCCN(C)Cc2ccccc2)C1c1cccc([N+](=O)[O-])c1 (stereo not drawn) [Nicardipine] + CCC(C)CCCC(=O)N[C@@H](CCN)C(=O)N[C@H](C(=O)N[C@@H](CCN)C(=O)N[C@H]1CCNC(=O)[C@H]([C@@H](C)O)NC(=O)[C@H](CCN)NC(=O)[C@H](CCN)NC(=O)[C@H](CC(C)C)NC(=O)[C@@H](CC(C)C)NC(=O)[C@H](CCN)NC1=O)[C@@H](C)O [colistin] 1.01
CC(=O)Oc1cc2c(s1)CCN(C(C(=O)C1CC1)c1ccccc1F)C2 (stereo not drawn) [Prasugrel] + CCC(C)CCCC(=O)N[C@@H](CCN)C(=O)N[C@H](C(=O)N[C@@H](CCN)C(=O)N[C@H]1CCNC(=O)[C@H]([C@@H](C)O)NC(=O)[C@H](CCN)NC(=O)[C@H](CCN)NC(=O)[C@H](CC(C)C)NC(=O)[C@@H](CC(C)C)NC(=O)[C@H](CCN)NC1=O)[C@@H](C)O [colistin] 0.988
CCCCc1ncc(/C=C(\Cc2cccs2)C(=O)O)n1Cc1ccc(C(=O)O)cc1 [Eprosartan Mesylate] + CCC(C)CCCC(=O)N[C@@H](CCN)C(=O)N[C@H](C(=O)N[C@@H](CCN)C(=O)N[C@H]1CCNC(=O)[C@H]([C@@H](C)O)NC(=O)[C@H](CCN)NC(=O)[C@H](CCN)NC(=O)[C@H](CC(C)C)NC(=O)[C@@H](CC(C)C)NC(=O)[C@H](CCN)NC1=O)[C@@H](C)O [colistin] 1.08
C[C@@H](c1ncncc1F)[C@](O)(Cn1cncn1)c1ccc(F)cc1F [Voriconazole] + CCC(C)CCCC(=O)N[C@@H](CCN)C(=O)N[C@H](C(=O)N[C@@H](CCN)C(=O)N[C@H]1CCNC(=O)[C@H]([C@@H](C)O)NC(=O)[C@H](CCN)NC(=O)[C@H](CCN)NC(=O)[C@H](CC(C)C)NC(=O)[C@@H](CC(C)C)NC(=O)[C@H](CCN)NC1=O)[C@@H](C)O [colistin] 1.04
Nc1nc(=S)c2[nH]cnc2[nH]1 [6-Thioguanine] + CCC(C)CCCC(=O)N[C@@H](CCN)C(=O)N[C@H](C(=O)N[C@@H](CCN)C(=O)N[C@H]1CCNC(=O)[C@H]([C@@H](C)O)NC(=O)[C@H](CCN)NC(=O)[C@H](CCN)NC(=O)[C@H](CC(C)C)NC(=O)[C@@H](CC(C)C)NC(=O)[C@H](CCN)NC1=O)[C@@H](C)O [colistin] 0.936
CCOc1cc(CC(=O)N[C@@H](CC(C)C)c2ccccc2N2CCCCC2)ccc1C(=O)O [Repaglinide] + CCC(C)CCCC(=O)N[C@@H](CCN)C(=O)N[C@H](C(=O)N[C@@H](CCN)C(=O)N[C@H]1CCNC(=O)[C@H]([C@@H](C)O)NC(=O)[C@H](CCN)NC(=O)[C@H](CCN)NC(=O)[C@H](CC(C)C)NC(=O)[C@@H](CC(C)C)NC(=O)[C@H](CCN)NC1=O)[C@@H](C)O [colistin] 1.07
CC1=C(/C=C/C(C)=C/C=C/C(C)=C\C(=O)O)C(C)(C)CCC1 [Isotretinoin] + CCC(C)CCCC(=O)N[C@@H](CCN)C(=O)N[C@H](C(=O)N[C@@H](CCN)C(=O)N[C@H]1CCNC(=O)[C@H]([C@@H](C)O)NC(=O)[C@H](CCN)NC(=O)[C@H](CCN)NC(=O)[C@H](CC(C)C)NC(=O)[C@@H](CC(C)C)NC(=O)[C@H](CCN)NC1=O)[C@@H](C)O [colistin] 1.07
O=c1[nH]c(=O)n([C@H]2C[C@H](O)[C@@H](CO)O2)cc1F [Floxuridine] + CCC(C)CCCC(=O)N[C@@H](CCN)C(=O)N[C@H](C(=O)N[C@@H](CCN)C(=O)N[C@H]1CCNC(=O)[C@H]([C@@H](C)O)NC(=O)[C@H](CCN)NC(=O)[C@H](CCN)NC(=O)[C@H](CC(C)C)NC(=O)[C@@H](CC(C)C)NC(=O)[C@H](CCN)NC1=O)[C@@H](C)O [colistin] 0.81
O=C(O[C@H]1CN2CCC1CC2)N1CCc2ccccc2[C@@H]1c1ccccc1 [Solifenacin succinate] + CCC(C)CCCC(=O)N[C@@H](CCN)C(=O)N[C@H](C(=O)N[C@@H](CCN)C(=O)N[C@H]1CCNC(=O)[C@H]([C@@H](C)O)NC(=O)[C@H](CCN)NC(=O)[C@H](CCN)NC(=O)[C@H](CC(C)C)NC(=O)[C@@H](CC(C)C)NC(=O)[C@H](CCN)NC1=O)[C@@H](C)O [colistin] 0.962
O=C(O)[C@@H](S)[C@@H](S)C(=O)O [Succimer] + CCC(C)CCCC(=O)N[C@@H](CCN)C(=O)N[C@H](C(=O)N[C@@H](CCN)C(=O)N[C@H]1CCNC(=O)[C@H]([C@@H](C)O)NC(=O)[C@H](CCN)NC(=O)[C@H](CCN)NC(=O)[C@H](CC(C)C)NC(=O)[C@@H](CC(C)C)NC(=O)[C@H](CCN)NC1=O)[C@@H](C)O [colistin] 1.02
CO[C@H]1C(=O)[C@]2(C)[C@@H](OC)C[C@H]3OC[C@@]3(OC(C)=O)[C@H]2[C@H](OC(=O)c2ccccc2)[C@]2(O)C[C@H](OC(=O)[C@H](O)[C@@H](NC(=O)OC(C)(C)C)c3ccccc3)C(C)=C1C2(C)C [Cabazitaxel] + CCC(C)CCCC(=O)N[C@@H](CCN)C(=O)N[C@H](C(=O)N[C@@H](CCN)C(=O)N[C@H]1CCNC(=O)[C@H]([C@@H](C)O)NC(=O)[C@H](CCN)NC(=O)[C@H](CCN)NC(=O)[C@H](CC(C)C)NC(=O)[C@@H](CC(C)C)NC(=O)[C@H](CCN)NC1=O)[C@@H](C)O [colistin] 0.937

Reprinted at random: 2 entries already listed
OD600, inactive:
C[C@@H](c1ncncc1F)[C@](O)(Cn1cncn1)c1ccc(F)cc1F [Voriconazole] + CCC(C)CCCC(=O)N[C@@H](CCN)C(=O)N[C@H](C(=O)N[C@@H](CCN)C(=O)N[C@H]1CCNC(=O)[C@H]([C@@H](C)O)NC(=O)[C@H](CCN)NC(=O)[C@H](CCN)NC(=O)[C@H](CC(C)C)NC(=O)[C@@H](CC(C)C)NC(=O)[C@H](CCN)NC1=O)[C@@H](C)O [colistin] 1.04
CCOc1cc(CC(=O)N[C@@H](CC(C)C)c2ccccc2N2CCCCC2)ccc1C(=O)O [Repaglinide] + CCC(C)CCCC(=O)N[C@@H](CCN)C(=O)N[C@H](C(=O)N[C@@H](CCN)C(=O)N[C@H]1CCNC(=O)[C@H]([C@@H](C)O)NC(=O)[C@H](CCN)NC(=O)[C@H](CCN)NC(=O)[C@H](CC(C)C)NC(=O)[C@@H](CC(C)C)NC(=O)[C@H](CCN)NC1=O)[C@@H](C)O [colistin] 1.07
